Source: publication PMC7450955
Results are given in words; binding and its absence hold for the method and conditions named. Binding seen in cells or lysates may run through a third protein. Tags and fused reporters may be left off the sequences shown.

Biological target: T1, APOL1-A-FLAG (human) (UniProt O14791)
T1 sequence: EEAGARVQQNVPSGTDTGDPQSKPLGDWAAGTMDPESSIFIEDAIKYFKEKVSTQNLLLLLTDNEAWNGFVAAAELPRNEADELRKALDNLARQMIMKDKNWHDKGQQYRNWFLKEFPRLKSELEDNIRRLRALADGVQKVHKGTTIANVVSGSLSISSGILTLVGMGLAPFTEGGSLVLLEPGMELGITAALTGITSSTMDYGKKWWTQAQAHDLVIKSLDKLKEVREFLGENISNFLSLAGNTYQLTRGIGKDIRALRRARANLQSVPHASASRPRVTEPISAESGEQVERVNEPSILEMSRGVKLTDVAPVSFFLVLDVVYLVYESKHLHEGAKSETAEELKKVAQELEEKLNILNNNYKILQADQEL
Experiment: co-IP; NLRP12 and FLAG-tagged APOL1 constructs cotransfected into HeLa cells; APOL1 immunoprecipitated with anti-FLAG antibodies; western analysis for NLRP12

binding: no binding
B1: NLRP12 (transfected) (protein, UniProt P59046 1-1061)
chain: MLRTAGRDGLCRLSTYLEELEAVELKKFKLYLGTATELGEGKIPWGSMEKAGPLEMAQLLITHFGPEEAWRLALSTFERINRKDLWERGQREDLVRDTPPGGPSSLGNQSTCLLEVSLVTPRKDPQETYRDYVRRKFRLMEDRNARLGECVNLSHRYTRLLLVKEHSNPMQVQQQLLDTGRGHARTVGHQASPIKIETLFEPDEERPEPPRTVVMQGAAGIGKSMLAHKVMLDWADGKLFQGRFDYLFYINCREMNQSATECSMQDLIFSCWPEPSAPLQELIRVPERLLFIIDGFDELKPSFHDPQGPWCLCWEEKRPTELLLNSLIRKKLLPELSLLITTRPTALEKLHRLLEHPRHVEILGFSEAERKEYFYKYFHNAEQAGQVFNYVRDNEPLFTMCFVPLVCWVVCTCLQQQLEGGGLLRQTSRTTTAVYMLYLLSLMQPKPGAPRLQPPPNQRGLCSLAADGLWNQKILFEEQDLRKHGLDGEDVSAFLNMNIFQKDINCERYYSFIHLSFQEFFAAMYYILDEGEGGAGPDQDVTRLLTEYAFSERSFLALTSRFLFGLLNEETRSHLEKSLCWKVSPHIKMDLLQWIQSKAQSDGSTLQQGSLEFFSCLYEIQEEEFIQQALSHFQVIVVSNIASKMEHMVSSFCLKRCRSAQVLHLYGATYSADGEDRARCSAGAHTLLVQLPERTVLLDAYSEHLAAALCTNPNLIELSLYRNALGSRGVKLLCQGLRHPNCKLQNLRLKRCRISSSACEDLSAALIANKNLTRMDLSGNGVGFPGMMLLCEGLRHPQCRLQMIQLRKCQLESGACQEMASVLGTNPHLVELDLTGNALEDLGLRLLCQGLRHPVCRLRTLWLKICRLTAAACDELASTLSVNQSLRELDLSLNELGDLGVLLLCEGLRHPTCKLQTLRLGICRLGSAACEGLSVVLQANHNLRELDLSFNDLGDWGLWLLAEGLQHPACRLQKLWLDSCGLTAKACENLYFTLGINQTLTDLYLTNNALGDTGVRLLCKRLSHPGCKLRVLWLFGMDLNKMTHSRLAALRVTKPYLDIGC
